Assay results from paper PMC10162677.
No constants are given. Whether binding was seen depends on the method and setting. Binding seen in cells or lysates may run through a third protein. Tags and fused reporters may be left off the sequences shown.

Molecular target: T1, GFP-tagged CD68 (UniProt P34810)
T1 sequence: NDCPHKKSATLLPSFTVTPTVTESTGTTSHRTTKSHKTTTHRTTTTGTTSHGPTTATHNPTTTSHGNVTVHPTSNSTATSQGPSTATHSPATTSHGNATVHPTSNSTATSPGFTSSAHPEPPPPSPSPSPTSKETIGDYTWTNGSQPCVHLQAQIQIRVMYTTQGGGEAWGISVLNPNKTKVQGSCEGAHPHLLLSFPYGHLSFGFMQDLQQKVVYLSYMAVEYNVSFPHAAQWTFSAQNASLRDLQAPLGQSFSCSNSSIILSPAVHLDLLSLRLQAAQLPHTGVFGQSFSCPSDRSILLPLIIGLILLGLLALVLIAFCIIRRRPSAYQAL
Experiment: co-IP; HEK293T cotransfected, harvested 48 hours after transfection; lysis in 150 mM NaCl, 50 mM tris-HCl pH 7.5, 1% Triton X-100, 0.1% deoxycholic acid; GFP-Trap beads (anti-GFP) 3 hours at 4°C; Western blot with antibodies against Myc or GFP

B1: Myc-tagged human TREM2 (TREM2-mychis fusion) (receptor, UniProt Q9NZC2 19-230)
chain: HNTTVFQGVAGQSLQVSCPYDSMKHWGRRKAWCRQLGEKGPCQRVVSTHNLWLLSFLRRWNGSTAITDDTLGGTLTITLRNLQPHDAGLYQCQSLHGSEADTLRKVLVEVLADPLDHRDAGDLWFPGESESFEDAHVEHSISRSLLEGEIPFPPTSILLLLACIFLIKILAASALWAAAWHGQKPGTHPPSELDCGHDPGYQLQTLPGLRDT
- binding: no binding
